Taken from: PubChem BioAssay AID504764 (Drosophila RNAi Screening Center, 2011)
Aim: 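Genome-wide screen for regulators of Notch-driven gene expression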 (primary screen). System: Drosophila Kc167 cells. Reagents: long dsRNA against Drosophila genes. Timing: about 5 days (4 days dsRNA, then 24 h after transfection). Treatment: transfection of constitutively active membrane-tethered Notch lacking the extracellular domain, read 24 h later. Read-out: 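Light from a Notch-responsive E(spl)m3 luciferase reporter under active Notch, with control-promoter and no-Notch reporter wells to normalise; raw counts from paired wells a and b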. Reading the numbers: induced reporter light, run 1, well a and induced reporter light, run 1, well b: higher = more light from the Notch target reporter with active Notch; control promoter light, run 1, well a and control promoter light, run 1, well b: higher = more light from the viral control promoter (cell number, transfection, viability); uninduced reporter light, run 1, well a: higher = more light from the Notch target reporter without active Notch. Call rule: 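Hit if the duplicate-averaged log2 ratio of induced to control-promoter light gives a plate-wise z beyond ±2, or induced to uninduced beyond ±1.8; weak-control or discordant-duplicate wells dropped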. Calls: active = modifier hit (raised or lowered Notch signal); inactive = not a hit.
The deposit covers about 22,000 reagents; below is an unselected part of those that have a named target and a result. In the full data, 403 (1.9%) got an active call. 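Unnormalised raw counts per well; ratio z-scores behind the hit calls and whether each hit raises or lowers signal are not deposited.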 The numbers tell different reagents against one gene apart. No sequences are given here. Not given: the amount of reagent.

gene | dsRNA no. | induced reporter light, run 1, well a | induced reporter light, run 1, well b | control promoter light, run 1, well a | control promoter light, run 1, well b | uninduced reporter light, run 1, well a | call
CG17145 (GeneID 40215) | 1 | 1.12e5 | 99245 | 87745 | 96070 | 7510 | inactive
ex (GeneID 33218) | 1 | 1.72e5 | 2.27e5 | 2.16e5 | 2.23e5 | 19110 | inactive
RpLP0-like (GeneID 36058) | 1 | 1.41e5 | 1.18e5 | 1.16e5 | 1.19e5 | 10660 | inactive
CG13738 (GeneID 39541) | 1 | 2.18e5 | 2.10e5 | 2.83e5 | 2.36e5 | 21225 | inactive
Rgl (GeneID 44115) | 1 | 50210 | 41775 | 53545 | 61480 | 6625 | inactive
Atg18a (GeneID 38913) | 1 | 1.26e5 | 1.47e5 | 93250 | 56310 | 9035 | inactive
Acf (GeneID 43751) | 1 | 1.45e5 | 1.43e5 | 1.93e5 | 1.76e5 | 11600 | inactive
CG15530 (GeneID 43589) | 1 | 1.17e5 | 1.04e5 | 1.90e5 | 1.47e5 | 11635 | inactive
Shaw (GeneID 33599) | 1 | 2.25e5 | 2.00e5 | 2.28e5 | 2.16e5 | 12900 | inactive
Shaw (GeneID 33599) | 2 | 2.05e5 | 1.73e5 | 1.70e5 | 1.57e5 | 11628 | inactive
Acsx1L (GeneID 42351) | 1 | 1.88e5 | 1.40e5 | 1.55e5 | 1.65e5 | 15095 | inactive
CG10748 (GeneID 39469) | 1 | 1.37e5 | 1.49e5 | 1.73e5 | 1.26e5 | 6965 | inactive
CG10413 (GeneID 35111) | 1 | 3.28e5 | 3.38e5 | 3.41e5 | 3.14e5 | 20535 | inactive
holn1 (GeneID 34432) | 1 | 1.70e5 | 1.58e5 | 1.31e5 | 1.12e5 | 14025 | inactive
holn1 (GeneID 34432) | 2 | – | – | – | – | – | inactive
CG18428 (GeneID 42857) | 1 | 2.03e5 | 1.92e5 | 2.17e5 | 2.03e5 | 13770 | inactive
mRpS16 (GeneID 36570) | 1 | 80625 | 88445 | 1.06e5 | 1.00e5 | 9615 | inactive
Agpat3 (GeneID 39820) | 1 | 1.04e5 | 1.16e5 | 66960 | 81210 | 8555 | inactive
CG13842 (GeneID 42685) | 1 | 1.68e5 | 1.37e5 | 1.78e5 | 1.97e5 | 13425 | inactive
CG31054 (retired record) (GeneID 318573) | 1 | – | – | – | – | – | inactive
t-Grip91 (GeneID 34931) | 1 | 97165 | 79285 | 79740 | 70130 | 7595 | inactive
NELF-B (GeneID 31681) | 1 | 1.40e5 | 1.04e5 | 1.62e5 | 1.48e5 | 13435 | inactive
Vha13 (GeneID 42341) | 1 | 1.35e5 | 1.07e5 | 1.56e5 | 1.56e5 | 8570 | inactive
TwdlN (GeneID 43207) | 1 | 1.94e5 | 1.78e5 | 2.41e5 | 1.69e5 | 12885 | inactive
ssp5 (GeneID 41465) | 1 | 1.50e5 | 1.39e5 | 97170 | 94370 | 10115 | inactive
dpa (GeneID 35679) | 1 | 1.09e5 | 1.03e5 | 1.13e5 | 1.25e5 | 9470 | inactive
CG42538 (GeneID 8673985) | 1 | 1.50e5 | 1.82e5 | 2.43e5 | 2.88e5 | 15450 | inactive
Lip3 (GeneID 41643) | 1 | 2.11e5 | 2.16e5 | 1.99e5 | 1.99e5 | 15985 | inactive
CG32379 (GeneID 326211) | 1 | 1.72e5 | 1.25e5 | 1.48e5 | 1.24e5 | 8045 | inactive
CG18130 (GeneID 32161) | 1 | 1.29e5 | 1.23e5 | 2.34e5 | 2.13e5 | 10485 | inactive
CG10137 (GeneID 35241) | 1 | 60510 | 59470 | 42045 | 47720 | 4250 | inactive
CG10137 (GeneID 35241) | 2 | 24885 | 23285 | 23050 | 20050 | 1805 | inactive
CG7386 (GeneID 38719) | 1 | 2.32e5 | 1.42e5 | 1.79e5 | 1.87e5 | 7720 | inactive

Laid out differently: entries from further up
ssp5 (GeneID 41465)
- induced reporter light, run 1, well a: 1.50e5
- induced reporter light, run 1, well b: 1.39e5
- control promoter light, run 1, well a: 97170
- control promoter light, run 1, well b: 94370
- uninduced reporter light, run 1, well a: 10115
- call: inactive

dpa (GeneID 35679)
- induced reporter light, run 1, well a: 1.09e5
- induced reporter light, run 1, well b: 1.03e5
- control promoter light, run 1, well a: 1.13e5
- control promoter light, run 1, well b: 1.25e5
- uninduced reporter light, run 1, well a: 9470
- call: inactive

CG42538 (GeneID 8673985)
- induced reporter light, run 1, well a: 1.50e5
- induced reporter light, run 1, well b: 1.82e5
- control promoter light, run 1, well a: 2.43e5
- control promoter light, run 1, well b: 2.88e5
- uninduced reporter light, run 1, well a: 15450
- call: inactive

Lip3 (GeneID 41643)
- induced reporter light, run 1, well a: 2.11e5
- induced reporter light, run 1, well b: 2.16e5
- control promoter light, run 1, well a: 1.99e5
- control promoter light, run 1, well b: 1.99e5
- uninduced reporter light, run 1, well a: 15985
- call: inactive

CG32379 (GeneID 326211)
- induced reporter light, run 1, well a: 1.72e5
- induced reporter light, run 1, well b: 1.25e5
- control promoter light, run 1, well a: 1.48e5
- control promoter light, run 1, well b: 1.24e5
- uninduced reporter light, run 1, well a: 8045
- call: inactive

CG18130 (GeneID 32161)
- induced reporter light, run 1, well a: 1.29e5
- induced reporter light, run 1, well b: 1.23e5
- control promoter light, run 1, well a: 2.34e5
- control promoter light, run 1, well b: 2.13e5
- uninduced reporter light, run 1, well a: 10485
- call: inactive

The listing continues:
gene | dsRNA no. | induced reporter light, run 1, well a | induced reporter light, run 1, well b | control promoter light, run 1, well a | control promoter light, run 1, well b | uninduced reporter light, run 1, well a | call
Fa2h (GeneID 35670) | 1 | 2.02e5 | 1.79e5 | 2.75e5 | 2.43e5 | 17020 | inactive
Fa2h (GeneID 35670) | 2 | 1.14e5 | 1.36e5 | 1.87e5 | 1.69e5 | 11095 | inactive
CG15602 (GeneID 32533) | 1 | 82945 | 85300 | 1.15e5 | 65535 | 11365 | inactive
Or7a (GeneID 31750) | 1 | 1.62e5 | 1.57e5 | 2.69e5 | 2.49e5 | 11642 | inactive
CG6650 (GeneID 39555) | 1 | 1.27e5 | 1.62e5 | 1.26e5 | 1.10e5 | 9500 | inactive
CG11356 (GeneID 32178) | 1 | 1.13e5 | 1.16e5 | 1.95e5 | 1.24e5 | 8860 | inactive
Cp16 (GeneID 39001) | 1 | 1.65e5 | 1.78e5 | 2.47e5 | 2.21e5 | 9342 | inactive
Gr61a (GeneID 38098) | 1 | 91285 | 1.19e5 | 1.98e5 | 1.87e5 | 6020 | inactive
TpnC41C (GeneID 35473) | 1 | 1.84e5 | 1.47e5 | 1.39e5 | 1.49e5 | 9800 | inactive
Lip2 (GeneID 43980) | 1 | 95645 | 1.19e5 | 62995 | 80775 | 15530 | inactive
Lip2 (GeneID 43980) | 2 | 98095 | 1.11e5 | 73845 | 83320 | 15900 | inactive
CG5149 (GeneID 34013) | 1 | 1.63e5 | 1.79e5 | 1.98e5 | 2.11e5 | 17970 | inactive
Gug (GeneID 46156) | 1 | 1.15e5 | 85175 | 1.10e5 | 1.01e5 | 6220 | inactive
ninaA (GeneID 33271) | 1 | 2.10e5 | 2.07e5 | 2.42e5 | 2.58e5 | 17770 | inactive
CG9689 (GeneID 31922) | 1 | 1.89e5 | 2.07e5 | 2.21e5 | 2.12e5 | 13500 | inactive
CG5762 (GeneID 42907) | 1 | 1.34e5 | 1.21e5 | 1.27e5 | 1.29e5 | 13155 | inactive
mRpL37 (GeneID 41293) | 1 | 1.37e5 | 1.51e5 | 1.88e5 | 1.33e5 | 15650 | inactive
